Binding data for one molecule are collected here from paper doi:10.1101/2022.09.03.506465.

The target of this assay is T1, SBP-tagged wild-type human TSEN (TSEN2, SBP-TSEN15, TSEN34, TSEN54) (human) (UniProt Q8NCE0+Q8WW01+Q9BSV6+Q7Z6J9).
T1 sequence 1: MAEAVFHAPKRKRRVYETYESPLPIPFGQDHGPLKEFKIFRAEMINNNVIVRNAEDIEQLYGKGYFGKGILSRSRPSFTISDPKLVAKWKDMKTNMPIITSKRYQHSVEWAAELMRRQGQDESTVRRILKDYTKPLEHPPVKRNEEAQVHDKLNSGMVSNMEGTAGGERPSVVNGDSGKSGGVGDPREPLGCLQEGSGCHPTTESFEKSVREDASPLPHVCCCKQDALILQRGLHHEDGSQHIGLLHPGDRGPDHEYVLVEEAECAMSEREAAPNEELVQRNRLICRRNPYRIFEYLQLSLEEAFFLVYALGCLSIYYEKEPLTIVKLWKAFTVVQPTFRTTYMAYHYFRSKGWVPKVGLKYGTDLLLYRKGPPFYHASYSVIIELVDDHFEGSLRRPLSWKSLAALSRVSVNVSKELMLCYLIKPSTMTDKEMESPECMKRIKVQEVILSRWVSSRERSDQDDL
T1 sequence 2: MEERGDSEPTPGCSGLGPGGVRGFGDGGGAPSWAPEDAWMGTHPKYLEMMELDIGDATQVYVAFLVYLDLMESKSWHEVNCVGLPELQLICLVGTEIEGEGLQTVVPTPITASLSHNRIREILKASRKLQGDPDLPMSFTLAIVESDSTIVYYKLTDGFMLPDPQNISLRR
T1 sequence 3: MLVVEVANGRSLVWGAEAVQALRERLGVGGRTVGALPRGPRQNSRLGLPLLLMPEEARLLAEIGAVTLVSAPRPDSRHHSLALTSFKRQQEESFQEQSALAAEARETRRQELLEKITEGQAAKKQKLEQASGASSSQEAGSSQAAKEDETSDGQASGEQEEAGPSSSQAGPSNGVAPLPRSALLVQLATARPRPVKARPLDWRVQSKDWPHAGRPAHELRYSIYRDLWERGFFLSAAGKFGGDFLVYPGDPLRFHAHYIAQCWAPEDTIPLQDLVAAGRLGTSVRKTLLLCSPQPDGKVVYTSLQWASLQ
T1 sequence 4: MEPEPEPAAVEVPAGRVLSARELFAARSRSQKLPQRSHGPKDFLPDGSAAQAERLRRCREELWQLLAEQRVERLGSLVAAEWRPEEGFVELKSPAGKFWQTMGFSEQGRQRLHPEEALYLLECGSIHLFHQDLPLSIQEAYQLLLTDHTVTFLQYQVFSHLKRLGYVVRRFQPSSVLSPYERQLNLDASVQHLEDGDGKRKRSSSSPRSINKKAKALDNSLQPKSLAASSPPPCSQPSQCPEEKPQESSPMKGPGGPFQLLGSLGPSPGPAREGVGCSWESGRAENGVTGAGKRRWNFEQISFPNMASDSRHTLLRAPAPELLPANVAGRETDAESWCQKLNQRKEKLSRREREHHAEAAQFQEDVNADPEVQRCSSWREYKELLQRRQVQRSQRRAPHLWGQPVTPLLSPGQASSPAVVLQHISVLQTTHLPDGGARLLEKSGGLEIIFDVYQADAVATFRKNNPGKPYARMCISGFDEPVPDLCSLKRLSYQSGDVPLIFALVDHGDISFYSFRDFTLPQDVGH
In words: pull-down.

Results are given in words; binding and its absence hold for the method and conditions named. Binding seen in cells or lysates may run through a third protein. Some entries that bind do so weakly or less than the wild type. Where a sequence is shown, tags or fusion partners need not be part of it.

B1: MBP-CLP1 (MBP-TEV-CLP1 construct of the RNA kinase CLP1) (enzyme, UniProt Q92989 1-425)
chain: MGEEANDDKKPTTKFELERETELRFEVEASQSVQLELLTGMAEIFGTELTRNKKFTFDAGAKVAVFTWHGCSVQLSGRTEVAYVSKDTPMLLYLNTHTALEQMRRQAEKEEERGPRVMVVGPTDVGKSTVCRLLLNYAVRLGRRPTYVELDVGQGSVSIPGTMGALYIERPADVEEGFSIQAPLVYHFGSTTPGTNIKLYNKITSRLADVFNQRCEVNRRASVSGCVINTCGWVKGSGYQALVHAASAFEVDVVVVLDQERLYNELKRDLPHFVRTVLLPKSGGVVERSKDFRRECRDERIREYFYGFRGCFYPHAFNVKFSDVKIYKVGAPTIPDSCLPLGMSQEDNQLKLVPVTPGRDMVHHLLSVSTAEGTEENLSETSVAGFIVVTSVDLEHQVFTVLSPAPRPLPKNFLLIMDIRFMDLK
B1: the binding entry was “binds”.
